In PubChem BioAssay AID1347075 (National Center for Advancing Translational Sciences (NCATS), 2019):
Screen size: about 400,000 compounds; about 5,500 (1.4%) were called active. Inconclusive results, whose numbers are uncertain, are shown with a selection of clear calls. The call rests on the fitted dose curve; in most records, active means well fitted cell-killing curve with a large enough effect; inconclusive means small, poorly fitted or top-dose-only effect, or effect the other way; inactive means flat fitted curve, though single readings scatter. Potencies of inconclusive entries are doubtful fits and often do not repeat.

Assay: qHTS assay for MDR1-selective chemotherapeutics: Primary screen using the parental adenocarcinoma cell KB-3-1; further: nearly all actives have a fitted effect of over 60% in size
Conditions: KB-3-1 viability, CellTiter-Glo ATP luminescence, 72 h; activity change, negative = cytotoxic: at 46.1 µM (top of the series)
Summary of the method: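 Cytotoxicity measured as CellTiter-Glo luminescence after 72 h at 37 C. Compound titrations were pinned onto drug-naive KB-3-1 parental adenocarcinoma cells grown in DMEM with 10% FBS, and normalized data fitted to concentration-response curves.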
On the % scale 0 is the no-effect control and ±100 the full control effect; potency means the concentration at half of the fitted maximal effect.

Row | SMILES | Potency | activity change, negative = cytotoxic
1 | CCCCn1c(N)c(N(CC(C)C)C(=O)CSCc2c(C)noc2C)c(=O)[nH]c1=O | inconclusive: 29.1 µM [cytotoxic, single point] | 
2 | O=C(NC1CCCC1)C(c1ccccc1)N(Cc1ccc2c(c1)OCO2)C(=O)Cc1cccs1 (configuration not stated) | inconclusive: 29.1 µM [cytotoxic, single point] | 
3 | O=C(Oc1ccc(Cl)c2cccnc12)c1ccco1 | inconclusive: 16.4 µM [cytotoxic, single point] | 
4 | O=C(COC(=O)C1(c2ccc(F)cc2)CCCC1)NCc1ccco1 | inconclusive: 20.6 µM [rising, single point] | 
5 | CCOc1ccc(CCN2C(=O)C(=O)N([C@@H](Cc3ccccc3)CN3CCC[C@H]3CN3C(=O)C(=O)NC[C@@H]3Cc3ccccc3)C[C@@H]2Cc2ccccc2)cc1 | inconclusive: 29.1 µM [cytotoxic, single point] | 
6 | CCN(CC)S(=O)(=O)c1ccc2c(c1)nc(CN(C)C(=O)Nc1cccc(Cl)c1)n2C |  | inactive: 0%
7 | COc1cccc(C(=O)c2cn(CC(=O)Nc3cccc(C(F)(F)F)c3)c3nc(C)ccc3c2=O)c1 | inconclusive: 29.1 µM [cytotoxic, single point] | 
8 | Cn1cc(C(=O)N/N=C/c2c(O)ccc3ccccc23)ccc1=O | inconclusive: 7.31 µM [cytotoxic, partial curve, poor fit] | 
9 | COc1ccc(Cn2c(CCC(=O)Nc3ccc(C)c(C)c3)nc3cccnc32)cc1 | inconclusive: 0.0206 µM [cytotoxic, full curve] | 
10 | Cc1cc2c(cc1C)[n+](C)cn2CC(O)COCC1CC=CCC1 (configuration not stated) | inconclusive: 9.2 µM [cytotoxic, single point] | 
11 | COc1ccccc1N1CCN(c2ccnc3cc(Cl)ccc23)CC1 | active: 6.51 µM | 
12 | Cc1ccc(NC(=S)N2CCN(S(=O)(=O)c3ccc(C)cc3)CC2)cc1 | inconclusive: 1.03 µM [cytotoxic, full curve] | 
13 | O=C(C1=C[C@@H](c2ccc(Br)cc2)C[C@@H](OCc2ccc(CO)cc2)O1)N1CCN(Cc2ccccc2)CC1 | inconclusive: 16.4 µM [cytotoxic, single point] | 
14 | CC(C)(C)c1ccccc1OCC(=O)Nc1ccccc1C(=O)NCc1cccnc1 |  | inactive: -5.15%
15 | O=C(N/N=C/c1ccccn1)c1ccc(Br)cc1 |  | inactive: -14.7%
16 | Cc1ccc(CCNC(=O)Cn2ncc3c([nH]c4ccc(C)cc43)c2=O)cc1 |  | inactive: 7.16%
17 | C[C@H]1CN([C@@H](C)CO)C(=O)c2cc(Br)cnc2O[C@@H]1CN(C)C(=O)C1CCC1 | inconclusive: 0.291 µM [cytotoxic, partial curve, poor fit] | 
18 | Cc1cccc(C)c1NC(=O)[C@@]1(CC(=O)O)CC(/C=C/c2ccccc2)=NO1 |  | inactive: -3.5%
19 | CN(C)S(=O)(=O)c1ccc(Nc2nc(C3CC3)nc3c2nnn3Cc2ccccc2Cl)cc1 | active: 2.91 µM | 
20 | CCCc1[nH]n(-c2ccc(F)cc2)c(=O)c1C=Nc1cccc(F)c1 | active: 5.8 µM | 
21 | Cc1ccc(S(=O)(=O)N2CCCC2)cc1[N+](=O)[O-] |  | inactive: 1.37%
22 | COCCN(C(=O)c1ccco1)c1nc(-c2ccc(OC)cc2)cs1 |  | inactive: -15.3%
23 | Cc1ccc2c(c1)C=CC(C#N)N2C(=O)c1ccccc1 (configuration not stated) | active: 4.61 µM | 
24 | CC(C)CC(CO)N1CCN(C(=O)c2ccc(Cl)cc2)CCC1=O (configuration not stated) | inconclusive: 4.11 µM [rising, partial curve, poor fit] | 

Row | SMILES | Potency | activity change, negative = cytotoxic
25 | O=C(NC1CCCCC1)C1(S(=O)(=O)c2ccc(Cl)cc2)CC1 |  | inconclusive: 5.19%
26 | CC1(C)CC(NC(=O)C2CCN(S(=O)(=O)c3ccc(F)cc3)CC2)CC(C)(C)N1 |  | inactive: -7.76%
27 | Cc1cc(Cl)ccc1OCC(=O)N1CCCN(C(=O)COc2ccc(Cl)cc2C)CC1 | inconclusive: 20.6 µM [cytotoxic, single point] | 
28 | Cc1ccc2nc(-c3ccccn3)oc2c1 |  | inactive: -13.9%
29 | CCCCOCCCNC(=O)C[C@@H]1C[C@@]2(C(=O)OCC)CCC=C2N(Cc2ccccc2)C1=O |  | inactive: 4.39%
30 | Cc1cccc(NC(=O)c2cc(-c3ccc4c(c3)OCCO4)on2)c1 | inconclusive: 13 µM [cytotoxic, partial curve, poor fit] | 
31 | Cc1cc(N2CCOCC2)nc2ccc(NC(=O)CCC(=O)N3CCCCC3)cc12 |  | inactive: -1.17%
32 | COc1ccc(N(CC(=O)Nc2cccc(C(C)=O)c2)S(=O)(=O)c2ccccc2)c(OC)c1 | inconclusive: 29.1 µM [cytotoxic, single point] | 
33 | CO/N=C/NC(=O)NOCc1ccc(Cl)cc1Cl |  | inactive: 5.56%
34 | CCc1nc2ccccc2c(C(=O)Oc2cccc3cccnc23)c1C |  | inactive: -18.7%
35 | CCCCn1c(SCC(=O)O)nc2ccccc21 |  | inactive: -14.7%
36 | COc1ccc(-c2c3c(=O)n(C)c(=O)n(C)c3c3n2-c2ccccc2NC3c2ccc(O)cc2O)cc1 (configuration not stated) | inconclusive: 29.1 µM [cytotoxic, single point] | 
37 | CCc1ccc(OCC(O)CN2CCC(CN3C(=O)c4cccc5cccc(c45)C3=O)CC2)cc1 (configuration not stated) | active: 23.1 µM | 
38 | Cc1ccccc1C(=O)N1CCC(C(=O)Nc2ccc(C)c(S(=O)(=O)N3CCCCC3)c2)CC1 | inconclusive: 23.1 µM [cytotoxic, partial curve] | 
39 | CCOC(=O)c1ccc(N2CCOCC2)c(NC(=O)c2c(-c3ccccc3)noc2C)c1 | active: 5.8 µM | 
40 | CCOC(=O)N1CCN(C(=O)CSCc2ccc(Br)cc2)CC1 | inconclusive: 29.1 µM [cytotoxic, single point] | 
41 | COc1cc(/C=C/c2nc(-c3ccccc3O)n[nH]2)cc(OC)c1OC | inconclusive: 20.6 µM [cytotoxic, single point] | 
42 | Brc1ccc(C2=CC(c3cccs3)n3ncnc3N2)cc1 (configuration not stated) |  | inactive: 0%
43 | NS(=O)(=O)c1ccc(CCNC(=O)CN2CCC(Cc3ccccc3)CC2)cc1 | inconclusive: 9.2 µM [cytotoxic, partial curve, poor fit] | 
44 | O=C(Nc1nc2n(n1)C(c1ccc(Cl)cc1)C=C(c1ccccc1)N2)c1ccco1 (configuration not stated) |  | inactive: -5.11%
45 | C=CCN(CC=C)c1nc2ccccc2nc1C(C#N)C(=O)OCCOC (configuration not stated) |  | inactive: 6.84%
46 | Cc1cc(C)c(O)c(-c2cc(C(=O)Nc3ccc(S(=O)(=O)N4CCOCC4)cc3)[nH]n2)c1 | inconclusive: 29.1 µM [cytotoxic, single point] | 
47 | O=C(c1ccc(Cl)nc1)N1CCN(C/C=C/c2ccccc2)CC1 | inconclusive: 29.1 µM [rising, single point] | 
48 | CC1=NN(c2nc3ccccc3[nH]2)C(=O)/C1=C/N(C)C | active: 5.8 µM | 

A few values from the entries so far.
Entry for CO/N=C/NC(=O)NOCc1ccc(Cl)cc1Cl under activity change, negative = cytotoxic: inactive: 5.56%
Entry for Cc1cc(N2CCOCC2)nc2ccc(NC(=O)CCC(=O)N3CCCCC3)cc12 under activity change, negative = cytotoxic: inactive: -1.17%

(further entries)

Row | SMILES | Potency | activity change, negative = cytotoxic
49 | Cc1cc(C)c2nc(NNC(=O)c3ccc(S(=O)(=O)N4CCCCC4)cc3)sc2c1 | inconclusive: 4.11 µM [cytotoxic, full curve] | 
50 | Cc1csc2c(N(C)CCO)ncnc12 |  | inactive: 18%
51 | CCOc1ccc2[nH]c(=O)c(CN(Cc3ccc(C)cc3)C(=O)N3CCCC3)cc2c1 |  | inactive: -5.79%
52 | COc1cccc2sc(N(CCCN(C)C)C(=O)C(c3ccccc3)c3ccccc3)nc12 | inconclusive: 29.1 µM [cytotoxic, single point] | 
53 | CCOC(=O)NC(=O)CSc1nnnn1-c1ccc(C)cc1 |  | inactive: 11.7%
54 | CN(C)S(=O)(=O)c1cccc(-c2nn(-c3ccccc3)cc2/C=C2\SC(=S)N(CC(=O)O)C2=O)c1 | inconclusive: 16.4 µM [cytotoxic, single point] | 
55 | Cc1snc2sc(C(=O)c3ccc(Br)cc3)c(N)c12 | inconclusive: 29.1 µM [cytotoxic, single point] | 
56 | CC(=O)NC(Cc1ccccc1)C(=O)NC(Cc1ccccc1)C(=O)O (configuration not stated) |  | inconclusive: -13.1%
57 | CCOC(=O)N1CCN(Cc2nc3cc(NC(=O)C(C)C)ccc3n2C(C)C)CC1 | active: 0.651 µM | 
58 | CCOc1cc(C2C(C#N)=C(N)Oc3cc(N)ccc32)ccc1O (configuration not stated) |  | inactive: 7.28%
59 | CN(Cc1ccccc1)C(=O)COC(=O)CNS(=O)(=O)c1ccc2ccccc2c1 |  | inactive: 5.22%
60 | COc1cc2c(NC3CCN(C)CC3)nc(N3CCCN(C)CC3)nc2cc1OCC1CCCCN1 (configuration not stated) | inconclusive: 29.1 µM [cytotoxic, single point] | 
61 | Oc1ccc(/C=N/N2CCN(C3c4ccccc4-c4ccccc43)CC2)cc1O | inconclusive: 20.6 µM [cytotoxic, partial curve, poor fit] | 
62 | CCC(C)(C)n1nnnc1C(c1ccc2ncccc2c1)N1CCCC(C)C1 (configuration not stated) |  | inactive: 5.12%
63 | CCn1c(SCC(=O)N2c3ccccc3Sc3ccccc32)nnc1-c1ccco1 |  | inactive: 3.79%
64 | CCCCn1c(N)c(N(CC(C)C)C(=O)CSc2nn(-c3ccc(F)cc3)c(=S)s2)c(=O)[nH]c1=O |  | inactive: -12%
65 | O=C(CSc1ccccc1C(=O)N1CCN(c2ccc([N+](=O)[O-])cc2)CC1)N1CCCC1 | inconclusive: 14.6 µM [cytotoxic, single point] | 
66 | COc1ccc(CCC(=O)N2CCN(S(=O)(=O)c3cccc(Cl)c3)CC2)cc1 | inconclusive: 16.4 µM [cytotoxic, partial curve, poor fit] | 
67 | [O-]/C(=C(\C(=S)Nc1ccc(SC(F)F)cc1)[n+]1ccccc1)c1cc(Cl)ccc1Cl | inconclusive: 32.6 µM [cytotoxic, single point] | 
68 | COc1ccc(Oc2nc(SC)nc3ccsc23)cc1 | inconclusive: 20.6 µM [cytotoxic, single point] | 
69 | COc1ccc(OCCN(C)Cc2c(O)ccc3ccccc23)cc1 | inconclusive: 1.03 µM [cytotoxic, full curve, poor fit] | 
70 | CC(CNC(=O)c1cc(-c2ccccc2)n[nH]1)c1ccccc1 (configuration not stated) |  | inactive: -3.82%
71 | CCOc1ccc(CCN2C(=O)c3ccc(C(=O)O)cc3C2=O)cc1OCC |  | inactive: 10.6%
72 | CCc1ccc2nc3n[nH]c(N)c3cc2c1 | inconclusive: 18.4 µM [cytotoxic, single point] | 

Among those listed so far, 3 have a cyano group.
Row | SMILES | Potency | activity change, negative = cytotoxic
23 | Cc1ccc2c(c1)C=CC(C#N)N2C(=O)c1ccccc1 (configuration not stated) | active: 4.61 µM | 
45 | C=CCN(CC=C)c1nc2ccccc2nc1C(C#N)C(=O)OCCOC (configuration not stated) |  | inactive: 6.84%
58 | CCOc1cc(C2C(C#N)=C(N)Oc3cc(N)ccc32)ccc1O (configuration not stated) |  | inactive: 7.28%
